# Data reported in the supplement of paper PMC12067093, “Discovery and optimisation of a covalent ligand for TRIM25 and its application to targeted protein ubiquitination” (Chemical Science, 2025).
# Sequences of proteins named here, by UniProt entry; tags and fusion partners are left off. A change or cut given only in a name is not applied to a line headed by its entry.
# UniProt P50748: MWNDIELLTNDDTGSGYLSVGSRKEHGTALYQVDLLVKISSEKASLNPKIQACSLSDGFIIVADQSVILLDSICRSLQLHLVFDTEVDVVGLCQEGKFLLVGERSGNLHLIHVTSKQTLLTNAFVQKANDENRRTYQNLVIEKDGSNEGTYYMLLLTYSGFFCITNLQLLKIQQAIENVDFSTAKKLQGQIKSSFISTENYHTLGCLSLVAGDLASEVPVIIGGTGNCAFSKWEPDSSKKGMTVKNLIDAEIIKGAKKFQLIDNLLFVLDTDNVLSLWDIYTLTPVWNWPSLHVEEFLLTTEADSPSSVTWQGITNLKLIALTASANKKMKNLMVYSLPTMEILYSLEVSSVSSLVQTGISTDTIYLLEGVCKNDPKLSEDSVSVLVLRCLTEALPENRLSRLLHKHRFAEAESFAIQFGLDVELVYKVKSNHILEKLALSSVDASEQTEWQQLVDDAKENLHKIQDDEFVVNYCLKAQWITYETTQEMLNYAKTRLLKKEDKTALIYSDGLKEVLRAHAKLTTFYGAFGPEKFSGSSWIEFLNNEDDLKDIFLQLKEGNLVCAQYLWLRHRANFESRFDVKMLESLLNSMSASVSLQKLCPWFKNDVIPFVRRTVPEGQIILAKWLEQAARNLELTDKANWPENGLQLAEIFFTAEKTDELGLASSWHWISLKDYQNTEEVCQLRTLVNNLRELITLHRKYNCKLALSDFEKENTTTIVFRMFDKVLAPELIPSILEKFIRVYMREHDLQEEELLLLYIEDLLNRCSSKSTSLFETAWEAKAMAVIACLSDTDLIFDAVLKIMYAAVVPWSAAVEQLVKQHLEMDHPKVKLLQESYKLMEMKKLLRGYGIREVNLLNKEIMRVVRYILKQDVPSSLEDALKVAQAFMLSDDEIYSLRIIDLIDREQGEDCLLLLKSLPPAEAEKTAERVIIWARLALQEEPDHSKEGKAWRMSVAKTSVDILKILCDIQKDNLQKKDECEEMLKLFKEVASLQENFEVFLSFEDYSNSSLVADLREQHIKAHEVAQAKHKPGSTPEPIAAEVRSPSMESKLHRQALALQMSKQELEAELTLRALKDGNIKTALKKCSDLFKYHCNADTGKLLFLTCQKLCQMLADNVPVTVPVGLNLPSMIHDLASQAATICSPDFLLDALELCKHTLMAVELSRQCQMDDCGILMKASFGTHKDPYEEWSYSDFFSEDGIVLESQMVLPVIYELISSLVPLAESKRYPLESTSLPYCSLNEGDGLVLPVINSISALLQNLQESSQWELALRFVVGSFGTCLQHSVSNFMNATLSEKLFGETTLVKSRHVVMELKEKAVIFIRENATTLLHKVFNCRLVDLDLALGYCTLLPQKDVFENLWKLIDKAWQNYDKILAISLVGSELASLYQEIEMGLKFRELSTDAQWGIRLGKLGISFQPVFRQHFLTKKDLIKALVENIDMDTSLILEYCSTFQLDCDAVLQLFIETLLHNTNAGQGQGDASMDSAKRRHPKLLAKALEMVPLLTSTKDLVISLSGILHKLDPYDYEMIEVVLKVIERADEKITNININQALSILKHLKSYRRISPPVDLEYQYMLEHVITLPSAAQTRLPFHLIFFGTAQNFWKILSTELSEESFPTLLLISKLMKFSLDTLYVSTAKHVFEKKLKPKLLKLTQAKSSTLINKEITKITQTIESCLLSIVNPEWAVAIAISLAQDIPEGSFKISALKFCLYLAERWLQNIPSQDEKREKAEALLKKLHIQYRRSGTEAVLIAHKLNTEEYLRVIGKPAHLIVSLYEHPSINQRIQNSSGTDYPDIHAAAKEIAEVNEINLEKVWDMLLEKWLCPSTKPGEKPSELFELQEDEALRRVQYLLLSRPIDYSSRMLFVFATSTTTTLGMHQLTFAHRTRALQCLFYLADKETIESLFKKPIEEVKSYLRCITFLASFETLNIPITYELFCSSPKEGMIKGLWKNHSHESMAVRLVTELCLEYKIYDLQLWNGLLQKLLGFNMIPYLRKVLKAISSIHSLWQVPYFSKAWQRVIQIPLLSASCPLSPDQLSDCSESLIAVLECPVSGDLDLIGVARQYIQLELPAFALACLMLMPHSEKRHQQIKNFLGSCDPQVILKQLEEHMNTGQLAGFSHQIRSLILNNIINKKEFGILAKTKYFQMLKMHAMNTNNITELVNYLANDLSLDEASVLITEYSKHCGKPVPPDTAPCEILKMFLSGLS
# UniProt P11279: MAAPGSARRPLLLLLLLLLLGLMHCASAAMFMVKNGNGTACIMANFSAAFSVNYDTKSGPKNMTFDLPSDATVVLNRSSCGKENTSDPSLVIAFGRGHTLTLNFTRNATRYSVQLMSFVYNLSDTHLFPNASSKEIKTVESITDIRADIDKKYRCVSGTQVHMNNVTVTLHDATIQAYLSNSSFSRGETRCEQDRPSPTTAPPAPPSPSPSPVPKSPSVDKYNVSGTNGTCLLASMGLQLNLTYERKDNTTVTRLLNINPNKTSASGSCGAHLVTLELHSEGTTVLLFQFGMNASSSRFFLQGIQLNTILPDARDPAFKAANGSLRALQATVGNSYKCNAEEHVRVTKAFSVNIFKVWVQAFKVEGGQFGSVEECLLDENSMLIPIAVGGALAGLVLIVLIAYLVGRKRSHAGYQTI
# UniProt Q07866: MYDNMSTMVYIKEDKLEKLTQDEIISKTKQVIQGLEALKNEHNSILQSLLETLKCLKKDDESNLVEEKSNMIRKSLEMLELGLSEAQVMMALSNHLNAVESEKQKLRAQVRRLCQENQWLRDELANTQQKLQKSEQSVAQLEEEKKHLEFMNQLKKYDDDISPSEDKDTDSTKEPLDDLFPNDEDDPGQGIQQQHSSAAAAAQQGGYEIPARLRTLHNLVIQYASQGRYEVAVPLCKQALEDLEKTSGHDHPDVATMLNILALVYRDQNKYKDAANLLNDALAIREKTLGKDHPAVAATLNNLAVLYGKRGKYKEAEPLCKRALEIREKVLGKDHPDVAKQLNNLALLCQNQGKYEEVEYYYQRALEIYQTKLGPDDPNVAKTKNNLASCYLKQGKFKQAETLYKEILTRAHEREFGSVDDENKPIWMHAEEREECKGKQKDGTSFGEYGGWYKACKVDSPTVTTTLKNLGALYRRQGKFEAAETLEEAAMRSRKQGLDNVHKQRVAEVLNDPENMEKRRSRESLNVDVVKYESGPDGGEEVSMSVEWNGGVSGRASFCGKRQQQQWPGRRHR
# UniProt Q96EM0: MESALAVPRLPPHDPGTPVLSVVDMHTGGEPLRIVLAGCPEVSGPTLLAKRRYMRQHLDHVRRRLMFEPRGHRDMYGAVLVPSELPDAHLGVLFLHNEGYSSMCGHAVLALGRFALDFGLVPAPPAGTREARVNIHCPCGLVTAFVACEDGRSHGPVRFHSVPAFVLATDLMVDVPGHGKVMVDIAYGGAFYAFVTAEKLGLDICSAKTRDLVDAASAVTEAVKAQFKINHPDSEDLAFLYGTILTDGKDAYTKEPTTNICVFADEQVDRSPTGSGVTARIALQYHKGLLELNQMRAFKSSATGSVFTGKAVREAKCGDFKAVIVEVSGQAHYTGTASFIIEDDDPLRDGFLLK
# UniProt Q9BW19: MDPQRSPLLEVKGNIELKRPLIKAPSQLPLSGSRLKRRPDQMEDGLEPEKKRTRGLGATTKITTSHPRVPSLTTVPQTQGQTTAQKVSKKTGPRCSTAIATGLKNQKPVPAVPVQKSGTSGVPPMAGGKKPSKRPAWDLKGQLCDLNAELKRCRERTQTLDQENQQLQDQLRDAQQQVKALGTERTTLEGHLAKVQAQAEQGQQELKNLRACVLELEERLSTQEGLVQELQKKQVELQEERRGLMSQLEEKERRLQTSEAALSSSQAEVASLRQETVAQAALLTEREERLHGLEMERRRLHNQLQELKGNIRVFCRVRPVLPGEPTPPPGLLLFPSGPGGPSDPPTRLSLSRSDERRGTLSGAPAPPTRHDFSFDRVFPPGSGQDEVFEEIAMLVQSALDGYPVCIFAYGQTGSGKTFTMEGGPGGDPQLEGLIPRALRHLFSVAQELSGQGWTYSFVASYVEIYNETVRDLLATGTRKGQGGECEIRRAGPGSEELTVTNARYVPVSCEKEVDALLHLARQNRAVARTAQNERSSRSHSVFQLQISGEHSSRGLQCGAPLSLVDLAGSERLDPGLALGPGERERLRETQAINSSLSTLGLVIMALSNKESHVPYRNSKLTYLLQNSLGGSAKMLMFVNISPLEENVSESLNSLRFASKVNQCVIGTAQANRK
# UniProt P33176: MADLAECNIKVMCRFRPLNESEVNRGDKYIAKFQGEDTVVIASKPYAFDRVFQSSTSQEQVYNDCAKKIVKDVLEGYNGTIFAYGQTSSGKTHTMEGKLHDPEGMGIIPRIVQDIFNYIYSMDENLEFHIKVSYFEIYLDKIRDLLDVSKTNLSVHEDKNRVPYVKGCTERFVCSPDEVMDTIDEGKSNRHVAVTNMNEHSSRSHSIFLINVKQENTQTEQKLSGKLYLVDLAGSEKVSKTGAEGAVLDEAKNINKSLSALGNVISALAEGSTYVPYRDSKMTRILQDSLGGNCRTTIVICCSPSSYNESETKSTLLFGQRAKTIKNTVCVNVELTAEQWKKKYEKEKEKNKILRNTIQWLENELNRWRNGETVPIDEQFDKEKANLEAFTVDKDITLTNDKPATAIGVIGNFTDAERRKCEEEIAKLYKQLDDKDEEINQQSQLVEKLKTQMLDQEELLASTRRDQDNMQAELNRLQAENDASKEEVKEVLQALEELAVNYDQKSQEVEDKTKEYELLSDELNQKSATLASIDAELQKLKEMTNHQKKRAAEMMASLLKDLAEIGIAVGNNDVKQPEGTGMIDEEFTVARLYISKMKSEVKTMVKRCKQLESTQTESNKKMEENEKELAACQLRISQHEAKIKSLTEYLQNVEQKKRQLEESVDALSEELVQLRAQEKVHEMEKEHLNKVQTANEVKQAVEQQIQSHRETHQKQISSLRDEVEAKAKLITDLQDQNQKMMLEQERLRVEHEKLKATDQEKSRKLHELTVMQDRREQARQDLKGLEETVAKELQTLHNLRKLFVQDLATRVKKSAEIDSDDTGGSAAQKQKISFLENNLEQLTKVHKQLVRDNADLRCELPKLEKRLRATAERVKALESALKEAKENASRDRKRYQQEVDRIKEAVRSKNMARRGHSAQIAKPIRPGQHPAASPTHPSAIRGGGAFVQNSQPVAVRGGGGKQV
# UniProt Q9NS86: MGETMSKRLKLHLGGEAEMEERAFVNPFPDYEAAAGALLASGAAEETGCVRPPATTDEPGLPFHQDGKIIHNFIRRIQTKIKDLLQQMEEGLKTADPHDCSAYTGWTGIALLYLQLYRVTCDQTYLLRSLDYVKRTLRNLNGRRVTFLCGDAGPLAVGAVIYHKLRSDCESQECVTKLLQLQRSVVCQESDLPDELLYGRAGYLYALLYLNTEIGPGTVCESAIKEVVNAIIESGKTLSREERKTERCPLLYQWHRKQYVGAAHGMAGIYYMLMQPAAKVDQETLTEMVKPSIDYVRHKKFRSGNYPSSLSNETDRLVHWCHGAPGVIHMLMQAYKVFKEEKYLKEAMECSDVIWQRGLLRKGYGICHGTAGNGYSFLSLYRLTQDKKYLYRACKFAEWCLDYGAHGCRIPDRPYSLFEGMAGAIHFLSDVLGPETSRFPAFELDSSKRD
# UniProt Q02241: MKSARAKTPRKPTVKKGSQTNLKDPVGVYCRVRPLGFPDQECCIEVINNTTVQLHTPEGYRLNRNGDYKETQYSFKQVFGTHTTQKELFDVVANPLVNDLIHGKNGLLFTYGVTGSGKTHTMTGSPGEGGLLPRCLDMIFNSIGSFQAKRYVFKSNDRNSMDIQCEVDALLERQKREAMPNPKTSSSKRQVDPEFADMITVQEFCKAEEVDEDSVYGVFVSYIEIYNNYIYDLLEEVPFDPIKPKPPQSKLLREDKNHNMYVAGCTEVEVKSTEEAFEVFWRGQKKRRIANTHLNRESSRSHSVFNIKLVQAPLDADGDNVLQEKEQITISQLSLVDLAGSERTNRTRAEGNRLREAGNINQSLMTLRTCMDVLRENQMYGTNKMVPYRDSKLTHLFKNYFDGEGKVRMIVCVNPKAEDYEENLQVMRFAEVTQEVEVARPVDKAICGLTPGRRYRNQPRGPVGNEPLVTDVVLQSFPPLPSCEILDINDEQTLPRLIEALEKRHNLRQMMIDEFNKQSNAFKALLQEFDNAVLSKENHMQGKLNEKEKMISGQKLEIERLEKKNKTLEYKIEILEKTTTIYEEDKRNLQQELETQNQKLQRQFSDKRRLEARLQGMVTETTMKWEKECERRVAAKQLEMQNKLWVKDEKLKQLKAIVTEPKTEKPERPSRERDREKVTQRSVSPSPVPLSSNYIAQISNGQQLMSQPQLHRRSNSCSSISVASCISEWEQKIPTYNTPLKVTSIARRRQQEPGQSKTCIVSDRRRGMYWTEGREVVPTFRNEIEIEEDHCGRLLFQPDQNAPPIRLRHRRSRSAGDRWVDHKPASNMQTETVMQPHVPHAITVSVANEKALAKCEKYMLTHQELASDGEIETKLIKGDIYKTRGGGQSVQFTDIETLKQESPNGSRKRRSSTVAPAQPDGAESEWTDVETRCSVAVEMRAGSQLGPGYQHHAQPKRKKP
# This is one part of the list.
# Compound: CC1Cc2ccccc2N1C(=O)C1CCCN(C1)C(=O)CCl (mixture of isomers) [TRIM25 ligand 11 (diastereomer mixture)]
# Assay: probe-labelled cysteine peptide fold change vs DMSO (competition) (log2 fold change); higher = less target engagement (more negative = stronger competition)
# Conditions: THP-1, incubation time: 4 h
# 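Also: competitive chemoproteomic profiling in live THP-1 cells with an iodoacetamide desthiobiotin (IA-DTB) probe, comparing probe-labelled peptide intensities in compound-treated cells against DMSO-treated controls.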
Target,probe-labelled cysteine peptide fold change (10 µM),probe-labelled cysteine peptide fold change (50 µM)
KYAT3_Q6YP21_337_RMDDPECYFNSLPK (UniProt Q6YP21),0.0624,0.118
LCP1_P13796_206_KKLTPFTIQENLNLALNSASAIGCHVVNIGAEDLK (UniProt P13796),-0.238,-0.228
KMT2C_Q8NEZ4_417_GYHTFCLQPVMK (UniProt Q8NEZ4),0.0207,0.0109
KNL1_Q8NG31_1301_AQVESCQLNNR (UniProt Q8NG31),-0.0981,-0.124
KNTC1_P50748_2198_HCGKPVPPDTAPCEILK (UniProt P50748),-0.0749,-0.0603
LARS2_Q15031_578_FFSHFCHDQK (UniProt Q15031),0.293,0.211
KIF20B_Q96Q89-3_672_VETEEATACLELK (UniProt Q96Q89),0.0816,-0.0295
KPNB1_Q14974_223+228_HFIMQVVCEATQCPDTR (UniProt Q14974),0.163,0.0725
LDHB_P07195_36_ITVVGVGQVGMACAISILGK (UniProt P07195),-0.0702,-0.0641
LCMT1_Q9UIC8_316+318_HYCLCWATK (UniProt Q9UIC8),0.0295,0.0958
LANCL1_O43813_252_LHSLVKPSVDYVCQLK (UniProt O43813),-0.00553,0.226
LARP4_Q71RC2_76_EYEVMYSSSCETTR (UniProt Q71RC2),0.23,-0.221
LAS1L_Q9Y4W2_306_VECVLAELK (UniProt Q9Y4W2),0.0289,0.0763
LAMP1_P11279_338_CNAEEHVR (UniProt P11279),-0.00458,0.0599
KLC4_Q9NSK0_53_SEHQAVLQSLSQTIECLQQGGHEEGLVHEK (UniProt Q9NSK0),-0.107,-0.145
KLC1_Q07866_436_EFGSVDDENKPIWMHAEEREECK (UniProt Q07866),-0.0593,0.0558
LARP1_Q6PKG0_502_REEPEKWPLPPIVDYSQTDFSQLLNCPEFVPR (UniProt Q6PKG0),-0.217,-0.354
LCOR_Q96JN0-3_531_ASCSALASEAVFTPK (UniProt Q96JN0),-0.0661,-0.21
LARS_Q9P2J5_1093_QGDNCDSIIR (UniProt Q9P2J5),0.163,0.169
L3HYPDH_Q96EM0_139+148_VNIHCPCGLVTAFVACEDGR (UniProt Q96EM0),0.0922,0.0573

Target,probe-labelled cysteine peptide fold change (10 µM),probe-labelled cysteine peptide fold change (50 µM)
KIFC1_Q9BW19_663_VNQCVIGTAQANR (UniProt Q9BW19),0.197,0.211
LAGE3_Q14657_23_GGHSCR (UniProt Q14657),-0.174,-0.124
KIF5B_P33176_302_TTIVICCSPSSYNESETK (UniProt P33176),-0.00449,0.0579
KLHL11_Q9NVR0_526_AVITCYDTETR (UniProt Q9NVR0),0.134,0.211
KLHL15_Q96M94_588_LDGLQVCNLHFPDYVLDEVR (UniProt Q96M94),-0.0595,-0.00599
LAMP2_P13473_153_CNSLSTLEK (UniProt P13473),0.00999,0.0103
KLC1_Q07866_559_ASFCGK (UniProt Q07866),0.0458,-0.0774
KNTC1_P50748_1892_ALQCLFYLADK (UniProt P50748),0.211,0.229
LARP1_Q6PKG0_1054_RCPSQSSSR (UniProt Q6PKG0),0.05,0.105
LANCL2_Q9NS86_169_SDCESQECVTK (UniProt Q9NS86),0.245,0.229
KPNA3_O00505_417_DQVEYLVQQNVIPPFCNLLSVK (UniProt O00505),0.0868,0.14
KMT2B_Q9UMN6_1749_IDSLGTLSDLSDCEGR (UniProt Q9UMN6),-0.00444,0.206
KIF22_Q14807_508_ENHCPTMLRPLSHR (UniProt Q14807),0.0531,-0.158
KIF23_Q02241_165_NSMDIQCEVDALLER (UniProt Q02241),-0.111,-0.174
LACTB2_Q53H82_58_ILIDTGEPAIPEYISCLK (UniProt Q53H82),0.0984,-0.0283
KLC1_Q07866_349_QLNNLALLCQNQGK (UniProt Q07866),-0.073,0.0754
LAMC1_P11047_477_CKPGFFNLESSNPR (UniProt P11047),0.0155,0.286
LDHD_Q86WU2_310_IEFLDEVMMDACNR (UniProt Q86WU2),0.12,0.297
L3HYPDH_Q96EM0_148_VNIHCPCGLVTAFVACEDGR (UniProt Q96EM0),0.416,0.338

# Rewritten with bars between the fields: part of the list above.
Target | probe-labelled cysteine peptide fold change (10 µM) | probe-labelled cysteine peptide fold change (50 µM)
KIF5B_P33176_302_TTIVICCSPSSYNESETK (UniProt P33176) | -0.00449 | 0.0579
LANCL2_Q9NS86_169_SDCESQECVTK (UniProt Q9NS86) | 0.245 | 0.229
